Data: paper doi:10.1101/2020.09.14.294884 (bioRxiv, 2020)
No constants are given. Whether binding was seen depends on the method and setting. For part of these data: In cells and extracts the contact can be indirect. Some binding calls cover weakened binding; strength is not graded here. For part of these data: Where a sequence is shown, tags or fusion partners need not be part of it. Values belong to the molecule of their own block, whether it stands above or below them.

The chains behind the UniProt entries cited, without tags or fusion partners. Where a name states a change or a piece, a line headed by the entry shows the natural chain unless it says otherwise.
UniProt Q8DIQ1: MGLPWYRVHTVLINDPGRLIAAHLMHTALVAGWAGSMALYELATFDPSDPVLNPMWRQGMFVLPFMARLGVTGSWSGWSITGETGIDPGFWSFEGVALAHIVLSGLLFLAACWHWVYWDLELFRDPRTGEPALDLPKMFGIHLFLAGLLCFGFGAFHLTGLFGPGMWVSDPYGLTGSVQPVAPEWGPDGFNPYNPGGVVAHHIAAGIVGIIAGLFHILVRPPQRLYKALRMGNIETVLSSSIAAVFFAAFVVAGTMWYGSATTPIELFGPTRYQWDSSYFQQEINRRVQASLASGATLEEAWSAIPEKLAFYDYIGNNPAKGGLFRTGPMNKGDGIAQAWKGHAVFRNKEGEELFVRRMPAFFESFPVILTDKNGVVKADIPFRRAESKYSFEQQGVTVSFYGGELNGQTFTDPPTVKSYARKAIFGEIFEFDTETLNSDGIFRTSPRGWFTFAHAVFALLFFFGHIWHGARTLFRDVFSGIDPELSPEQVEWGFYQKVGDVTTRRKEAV

Experiments:
[1] = target: T1, strep-tagged Psb34 (Psb34-TS) (T. elongatus) (UniProt Q8DMP8); assay: pull-down
T1 sequence: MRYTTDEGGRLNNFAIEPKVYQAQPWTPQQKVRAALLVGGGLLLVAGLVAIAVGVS

[2] = target: CP47 (PsbB) (T. elongatus (endogenous in T. elongatus ΔpsbJ psbC-TS)) (UniProt Q8DIQ1); assay: cryo-EM structure
[3] = target: CP43 with C-terminal twin-strep-tag (PsbC-TS) (T. elongatus) (UniProt Q8DIF8); assay: cryo-EM structure

binding [1]: binds
Molecule: CP43 (untagged, in the psb34-TS strain) (from UniProt Q8DIF8 1-461)

binding [2]: binds
binding [1]: binds
B1: Psb28 (in PSII assembly intermediates) (protein, UniProt Q8DLJ8 1-116)
chain: MGAMAEIQFIRGINEEVVPDVRLTRARDGSSGQAMFYFDNPKIVQEGNLEVTGMYMVDEEGEIVTRDVNAKFINGQPVAIEATYTMRSPQEWDRFIRFMDRYAASHGLGFQKSENS

binding [3]: binds
binding [1]: binds
B2: Psb27 (in PSII assembly intermediates) (protein, UniProt Q8DG60 22-134)
chain: CANVPTGLTGNFREDTLALISSLREAIALPENDPNKKAAQAEARKKLNDFFALYRRDDSLRSLSSFMTMQTALNSLAGHYSSYPNRPLPEKLKARLEQEFKQVELALDREAKS

binding [2]: binds
B3: Psb34 (tsl0063) (protein, UniProt Q8DMP8 1-56)
chain: T1 sequence
